Results from article PMC3164630.
Results are given in words; binding and its absence hold for the method and conditions named. In cells and extracts the contact can be indirect. Some entries that bind do so weakly or less than the wild type.

Protein sequences, listed by entry. Tags and fused reporters are not part of them.
UniProt P18754: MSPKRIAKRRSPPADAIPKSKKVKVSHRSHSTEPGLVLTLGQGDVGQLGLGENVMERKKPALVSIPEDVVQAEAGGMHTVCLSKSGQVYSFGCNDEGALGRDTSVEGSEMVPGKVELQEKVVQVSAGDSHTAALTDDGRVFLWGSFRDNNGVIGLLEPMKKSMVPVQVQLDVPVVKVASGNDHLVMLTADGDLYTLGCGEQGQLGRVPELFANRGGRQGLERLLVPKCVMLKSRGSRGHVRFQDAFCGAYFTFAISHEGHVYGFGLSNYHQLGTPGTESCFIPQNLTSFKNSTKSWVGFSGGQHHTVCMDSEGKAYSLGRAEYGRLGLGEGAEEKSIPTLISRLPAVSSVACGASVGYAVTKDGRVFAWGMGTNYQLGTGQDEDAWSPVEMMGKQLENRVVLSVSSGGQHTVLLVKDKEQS
UniProt P03427: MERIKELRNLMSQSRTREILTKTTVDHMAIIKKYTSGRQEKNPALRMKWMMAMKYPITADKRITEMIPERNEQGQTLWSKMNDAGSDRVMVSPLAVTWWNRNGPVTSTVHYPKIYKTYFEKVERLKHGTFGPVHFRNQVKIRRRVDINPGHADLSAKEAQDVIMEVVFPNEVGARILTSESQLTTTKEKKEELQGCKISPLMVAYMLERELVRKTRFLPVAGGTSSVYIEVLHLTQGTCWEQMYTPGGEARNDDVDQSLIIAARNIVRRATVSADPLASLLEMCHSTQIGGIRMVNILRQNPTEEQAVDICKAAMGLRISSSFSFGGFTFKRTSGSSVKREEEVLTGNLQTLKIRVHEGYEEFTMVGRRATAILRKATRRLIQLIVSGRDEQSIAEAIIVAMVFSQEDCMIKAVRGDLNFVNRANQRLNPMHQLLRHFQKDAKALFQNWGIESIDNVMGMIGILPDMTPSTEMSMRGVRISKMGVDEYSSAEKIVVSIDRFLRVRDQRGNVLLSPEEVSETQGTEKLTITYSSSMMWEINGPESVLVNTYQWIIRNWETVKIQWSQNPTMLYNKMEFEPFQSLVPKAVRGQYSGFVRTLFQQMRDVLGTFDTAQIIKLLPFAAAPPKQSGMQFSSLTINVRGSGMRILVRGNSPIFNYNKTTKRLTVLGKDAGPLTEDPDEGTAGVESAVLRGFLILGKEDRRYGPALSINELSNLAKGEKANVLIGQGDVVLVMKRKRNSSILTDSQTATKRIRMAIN
UniProt P15682: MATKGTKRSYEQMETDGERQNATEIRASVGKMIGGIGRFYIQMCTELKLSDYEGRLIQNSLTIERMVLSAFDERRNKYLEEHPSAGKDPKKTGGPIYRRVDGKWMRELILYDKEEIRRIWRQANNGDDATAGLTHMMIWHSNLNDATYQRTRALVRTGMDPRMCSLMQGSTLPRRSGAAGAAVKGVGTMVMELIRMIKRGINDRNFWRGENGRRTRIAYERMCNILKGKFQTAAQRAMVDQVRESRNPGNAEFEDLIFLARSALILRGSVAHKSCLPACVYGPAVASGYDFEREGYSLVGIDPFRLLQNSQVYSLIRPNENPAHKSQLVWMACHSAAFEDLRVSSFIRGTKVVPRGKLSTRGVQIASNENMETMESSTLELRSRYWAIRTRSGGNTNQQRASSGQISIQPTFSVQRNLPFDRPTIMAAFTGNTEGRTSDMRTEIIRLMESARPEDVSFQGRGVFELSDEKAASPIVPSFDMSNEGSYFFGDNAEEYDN
UniProt P05777: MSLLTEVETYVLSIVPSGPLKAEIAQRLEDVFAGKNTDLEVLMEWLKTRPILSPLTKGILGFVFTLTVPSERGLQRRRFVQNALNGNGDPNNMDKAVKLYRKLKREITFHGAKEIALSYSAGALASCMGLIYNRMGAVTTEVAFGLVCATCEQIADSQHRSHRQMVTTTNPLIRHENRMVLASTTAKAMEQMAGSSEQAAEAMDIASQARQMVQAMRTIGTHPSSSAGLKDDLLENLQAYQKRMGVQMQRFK

Key:
[1] = target: Rcc1, the Ran guanine exchange factor (human (endogenous in HeLa)) (UniProt P18754); assay: co-IP
[2] = target: C-terminally Strep-tagged PB2 of recombinant influenza A virus WSN (rWSN-PB2-Strep) (influenza A virus strain WSN (A/WSN/33)) (UniProt P03427); assay: pull-down

Substance | binding [1] | binding [2]
influenza A virus (WSN) nucleoprotein NP (from UniProt P15682 1-498) | binds | binds
influenza A virus (WSN) matrix protein M1 (from UniProt P05777 1-252) | binds | –
